{"sequences": {"note": "Protein sequences, listed by entry. Tags and fused reporters are not part of them.", "UniProt Q7M732": "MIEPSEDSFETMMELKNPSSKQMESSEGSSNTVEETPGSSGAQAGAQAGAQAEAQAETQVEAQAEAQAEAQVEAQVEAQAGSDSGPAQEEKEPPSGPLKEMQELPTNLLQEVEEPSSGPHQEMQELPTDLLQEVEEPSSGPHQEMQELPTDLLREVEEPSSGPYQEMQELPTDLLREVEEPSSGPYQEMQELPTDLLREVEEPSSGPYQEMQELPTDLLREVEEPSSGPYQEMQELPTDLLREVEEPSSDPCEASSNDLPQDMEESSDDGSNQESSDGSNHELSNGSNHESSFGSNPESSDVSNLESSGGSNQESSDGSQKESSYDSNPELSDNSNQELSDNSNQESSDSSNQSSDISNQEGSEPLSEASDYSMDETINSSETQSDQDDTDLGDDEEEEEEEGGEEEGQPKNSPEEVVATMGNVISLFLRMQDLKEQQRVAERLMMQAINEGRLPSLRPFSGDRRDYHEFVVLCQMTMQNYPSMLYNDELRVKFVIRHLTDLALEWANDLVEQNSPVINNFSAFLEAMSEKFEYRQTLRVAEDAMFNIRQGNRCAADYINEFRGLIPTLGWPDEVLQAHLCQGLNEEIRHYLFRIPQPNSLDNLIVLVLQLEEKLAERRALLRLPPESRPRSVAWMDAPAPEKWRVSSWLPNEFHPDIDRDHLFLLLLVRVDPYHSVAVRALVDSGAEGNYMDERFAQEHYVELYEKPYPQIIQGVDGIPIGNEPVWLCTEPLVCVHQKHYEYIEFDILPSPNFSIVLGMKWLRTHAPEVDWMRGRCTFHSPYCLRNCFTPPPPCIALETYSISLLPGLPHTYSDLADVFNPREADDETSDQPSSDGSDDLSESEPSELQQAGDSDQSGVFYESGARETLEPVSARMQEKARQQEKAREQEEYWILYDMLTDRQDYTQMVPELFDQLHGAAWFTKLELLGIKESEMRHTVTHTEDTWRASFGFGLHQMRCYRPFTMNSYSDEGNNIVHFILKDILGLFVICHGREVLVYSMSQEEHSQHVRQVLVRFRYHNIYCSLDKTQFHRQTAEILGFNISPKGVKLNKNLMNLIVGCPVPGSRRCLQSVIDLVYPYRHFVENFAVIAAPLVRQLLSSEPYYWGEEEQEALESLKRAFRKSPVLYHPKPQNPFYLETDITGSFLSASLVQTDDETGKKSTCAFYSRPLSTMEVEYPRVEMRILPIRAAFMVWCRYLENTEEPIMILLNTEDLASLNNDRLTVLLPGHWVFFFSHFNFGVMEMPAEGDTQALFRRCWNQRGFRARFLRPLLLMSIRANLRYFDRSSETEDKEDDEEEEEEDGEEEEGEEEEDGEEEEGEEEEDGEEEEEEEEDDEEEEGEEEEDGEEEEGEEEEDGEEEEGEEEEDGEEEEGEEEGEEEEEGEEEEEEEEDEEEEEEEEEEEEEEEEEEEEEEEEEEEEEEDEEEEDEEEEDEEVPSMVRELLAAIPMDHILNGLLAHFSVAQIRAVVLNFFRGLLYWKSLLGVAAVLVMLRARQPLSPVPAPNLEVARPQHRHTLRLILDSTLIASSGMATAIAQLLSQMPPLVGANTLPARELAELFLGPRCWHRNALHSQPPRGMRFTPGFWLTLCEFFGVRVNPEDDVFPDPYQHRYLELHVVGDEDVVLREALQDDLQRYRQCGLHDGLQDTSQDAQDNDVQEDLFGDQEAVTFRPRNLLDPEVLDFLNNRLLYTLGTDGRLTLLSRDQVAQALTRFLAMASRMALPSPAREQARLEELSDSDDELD"}, "source": "patent US20250073350A1", "molecular_target": "MmRTL1, bacterially produced (mouse) (UniProt Q7M732)", "experiment": "self-association; size exclusion and electron microscopy of protein produced in E. coli", "note": "No constants are given. Whether binding was seen depends on the method and setting. Some results given as binding are weak or reduced against the parent protein; the word gives no strength.", "data": [{"substance": "MmRTL1, bacterially produced (from UniProt Q7M732 1-1744)", "values": [{"measurement": "binding", "value": "binds"}]}]}
